# PubChem BioAssay AID1159584 – Peter MacCallum Cancer Centre – 2016
# Purpose: 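Knock-downs that harm CDH1-null cells more than parental MCF10A cells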 (primary screen)
# System: human MCF10A breast epithelial cells, parental and CDH1-null
# Reagents: siRNA against human genes
# Read-out: 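Cell viability by CellTiter-Glo ATP luminescence, each line scaled to the mean of mock wells across plates, then CDH1-null over parental ratio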
# Reading the numbers: CDH1-null / parental viability ratio: higher = CDH1-null cells survive relatively better than parental
# The deposit covers about 18,000 reagents; shown is a random part of them. Not all columns of the deposit are shown. No sequences are given here. The record does not give: the amount of reagent, the time to read-out.
gene,PubChem SID,CDH1-null / parental viability ratio
"ST8SIA6 (ST8 alpha-N-acetyl-neuraminide alpha-2,8-sialyltransferase 6)",SID152151884,1.03
CARMIL2 (capping protein regulator and myosin 1 linker 2),SID152148147,1.02
CLDN20 (claudin 20),SID152150046,1.16
HOXC12 (homeobox C12),SID134321596,1.25
AIG1 (androgen induced 1),SID134324727,0.86
"SEC11A (SEC11 homolog A, signal peptidase complex subunit)",SID152148410,1.03
TPD52L1 (TPD52 like 1),SID135623774,1.04
SLC6A14,SID134312647,1.11
NIT1 (nitrilase 1),SID134323769,1.09
ZBTB14 (zinc finger and BTB domain containing 14),SID135622926,1
PALM (paralemmin),SID135623782,0.68
WFDC9 (WAP four-disulfide core domain 9),SID134321416,0.56
DNER (delta/notch like EGF repeat containing),SID152149558,0.94
ARHGAP30 (Rho GTPase activating protein 30),SID135621719,0.84
AGK (acylglycerol kinase),SID56479172,0.91
ESD (esterase D),SID134313194,1.01
ATP9A (ATPase phospholipid transporting 9A),SID152152175,0.98
FAM151A (family with sequence similarity 151 member A),SID134321673,0.87
SKOR2 (SKI family transcriptional corepressor 2),SID135625423,0.89
GDPD1 (glycerophosphodiester phosphodiesterase domain containing 1),SID135623654,1.08
CLIC6 (CLIC family member 6),SID134317169,1.11
BNC1 (basonuclin zinc finger protein 1),SID152154355,1.05
STMN4 (stathmin 4),SID134320786,0.91
"RAB40B (RAB40B, member RAS oncogene family)",SID134313230,0.96
ITGA10 (integrin subunit alpha 10),SID134312933,0.93
CDR1 (cerebellar degeneration related 1),SID134323555,1.07
CFAP45 (cilia and flagella associated protein 45),SID152149222,0.88
HNRNPA1L2 (heterogeneous nuclear ribonucleoprotein A1 like 2),SID152154183,0.98
GJB6 (gap junction protein beta 6),SID152153823,1.02
TMEM140 (transmembrane protein 140),SID135624074,0.66
SORCS2 (sortilin related VPS10 domain containing receptor 2),SID135622466,0.94
ZNF420 (zinc finger protein 420),SID134320745,0.89
GSN (gelsolin),SID135621443,1.07
GATD1 (glutamine amidotransferase class 1 domain containing 1),SID135623631,0.89
ZXDB (zinc finger X-linked duplicated B),SID135625231,0.7
CENPA (centromere protein A),SID135620644,1.03

Entries above whose gene name begins with H or h:
gene,PubChem SID,CDH1-null / parental viability ratio
HOXC12 (homeobox C12),SID134321596,1.25
HNRNPA1L2 (heterogeneous nuclear ribonucleoprotein A1 like 2),SID152154183,0.98

More reagents:
gene,PubChem SID,CDH1-null / parental viability ratio
IL1RAP (interleukin 1 receptor accessory protein),SID134309933,1.14
CC2D1B (coiled-coil and C2 domain containing 1B),SID152149207,0.89
RNF182 (ring finger protein 182),SID152148085,0.82
CCDC50 (coiled-coil domain containing 50),SID152146936,0.83
MLC1 (modulator of VRAC current 1),SID152147250,1.46
CCR9 (C-C motif chemokine receptor 9),SID134310906,0.82
HECW1,SID152155008,1.14
ARHGAP24 (Rho GTPase activating protein 24),SID152148126,0.88
TNFSF9 (TNF superfamily member 9),SID134315856,1.36
HNF1B (HNF1 homeobox B),SID152147398,1.17
CSE1L (chromosome segregation 1 like),SID135620825,0.58
LOXL2 (lysyl oxidase like 2),SID152148659,0.92
DOCK11 (dedicator of cytokinesis 11),SID152151064,1.44
KRR1 (KRR1 small subunit processome component),SID135623497,0.83
"ZNF598 (zinc finger protein 598, E3 ubiquitin ligase)",SID135621314,1.35
IST1 (IST1 factor associated with ESCRT-III),SID134324603,1.06
PPP1R15A (protein phosphatase 1 regulatory subunit 15A),SID135620831,1.08
FGF17 (fibroblast growth factor 17),SID152148852,1.15
SLC9A2,SID134312669,1.06
XK,SID152151390,0.98
ALDH6A1 (aldehyde dehydrogenase 6 family member A1),SID134310246,1.07
INKA2 (inka box actin regulator 2),SID134321857,0.81
ACSL6 (acyl-CoA synthetase long chain family member 6),SID152156030,0.75
"TEX56P (testis expressed 56, pseudogene)",SID152153603,0.69
GRK4 (G protein-coupled receptor kinase 4),SID152155634,1.13
CTCF (CCCTC-binding factor),SID135623925,1.25
RGP1 (RGP1 partner of RAB6A GEF complex),SID152151631,1.04
PIGK (phosphatidylinositol glycan anchor biosynthesis class K),SID152155246,1.45
CLEC6A (C-type lectin domain containing 6A),SID152153186,1.12
GALR1 (galanin receptor 1),SID134310953,0.82
ACSM4 (acyl-CoA synthetase medium chain family member 4),SID135624626,1.01
SHANK3 (SH3 and multiple ankyrin repeat domains 3),SID152151763,0.86
